Measurements as given in article doi:10.1101/2021.02.19.431989.
No constants are given. Whether binding was seen depends on the method and setting. Binding seen in cells or lysates may run through a third protein. These calls come from enrichment with a bait or labelling near it, and not all partners need be listed. For some assays here: A no says only that the protein was not detected with the bait. Where a sequence is shown, tags or fusion partners need not be part of it.

By UniProt entry, the sequences of proteins in these tests, tags left out. Residues count along the entry.
UniProt Q14534: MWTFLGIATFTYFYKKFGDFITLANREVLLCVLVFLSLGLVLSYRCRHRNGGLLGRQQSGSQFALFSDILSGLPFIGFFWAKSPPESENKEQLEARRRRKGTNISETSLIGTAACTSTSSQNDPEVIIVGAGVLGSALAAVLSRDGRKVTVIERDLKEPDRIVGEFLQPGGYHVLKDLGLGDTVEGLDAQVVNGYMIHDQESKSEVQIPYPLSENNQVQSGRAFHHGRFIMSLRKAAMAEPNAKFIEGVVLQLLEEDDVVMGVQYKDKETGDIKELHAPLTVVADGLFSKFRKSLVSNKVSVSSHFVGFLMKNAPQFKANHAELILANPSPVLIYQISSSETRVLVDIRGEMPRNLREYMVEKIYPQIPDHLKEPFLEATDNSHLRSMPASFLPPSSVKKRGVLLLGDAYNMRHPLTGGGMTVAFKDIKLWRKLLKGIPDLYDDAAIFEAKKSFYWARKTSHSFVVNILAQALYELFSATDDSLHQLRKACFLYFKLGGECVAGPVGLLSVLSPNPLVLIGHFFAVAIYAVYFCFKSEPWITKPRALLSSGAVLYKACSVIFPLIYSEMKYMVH
UniProt P40939, residues 37-763: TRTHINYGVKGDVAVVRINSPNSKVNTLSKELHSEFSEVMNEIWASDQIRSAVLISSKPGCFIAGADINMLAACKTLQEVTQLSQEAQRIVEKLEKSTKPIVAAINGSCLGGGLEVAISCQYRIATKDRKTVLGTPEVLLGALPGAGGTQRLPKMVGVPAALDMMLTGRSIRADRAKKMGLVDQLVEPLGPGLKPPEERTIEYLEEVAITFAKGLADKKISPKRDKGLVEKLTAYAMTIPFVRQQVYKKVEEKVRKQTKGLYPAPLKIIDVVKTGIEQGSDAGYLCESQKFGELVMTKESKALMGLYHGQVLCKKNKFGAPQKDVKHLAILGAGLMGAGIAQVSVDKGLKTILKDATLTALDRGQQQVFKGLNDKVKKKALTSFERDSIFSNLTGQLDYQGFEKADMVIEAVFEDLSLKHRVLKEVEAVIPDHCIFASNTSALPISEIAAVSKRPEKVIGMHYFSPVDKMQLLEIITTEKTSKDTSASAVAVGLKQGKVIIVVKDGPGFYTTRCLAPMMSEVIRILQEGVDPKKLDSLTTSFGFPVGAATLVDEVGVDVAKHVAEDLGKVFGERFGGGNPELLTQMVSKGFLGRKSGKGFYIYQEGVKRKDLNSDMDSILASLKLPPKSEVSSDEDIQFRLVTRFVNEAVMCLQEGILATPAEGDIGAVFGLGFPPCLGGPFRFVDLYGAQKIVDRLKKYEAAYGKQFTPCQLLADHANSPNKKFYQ

T1: viperin (virus inhibitory protein, endoplasmic reticulum-associated, interferon-inducible) with N-terminal 3x-FLAG tag (human) (UniProt Q8WXG1)
T1 sequence: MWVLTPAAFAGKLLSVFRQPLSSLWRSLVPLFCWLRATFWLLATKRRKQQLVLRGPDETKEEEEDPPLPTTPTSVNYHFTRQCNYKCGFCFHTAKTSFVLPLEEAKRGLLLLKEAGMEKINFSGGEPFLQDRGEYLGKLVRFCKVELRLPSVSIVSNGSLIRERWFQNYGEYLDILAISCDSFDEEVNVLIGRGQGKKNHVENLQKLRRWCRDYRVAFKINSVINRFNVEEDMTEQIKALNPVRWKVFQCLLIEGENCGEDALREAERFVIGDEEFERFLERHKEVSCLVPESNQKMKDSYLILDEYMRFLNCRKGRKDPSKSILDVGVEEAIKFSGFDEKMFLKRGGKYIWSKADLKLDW

T2: viperin (virus inhibitory protein, endoplasmic reticulum-associated, interferon-inducible) with N-terminal 3x-FLAG tag (human), Q8WXG1
T2 chain: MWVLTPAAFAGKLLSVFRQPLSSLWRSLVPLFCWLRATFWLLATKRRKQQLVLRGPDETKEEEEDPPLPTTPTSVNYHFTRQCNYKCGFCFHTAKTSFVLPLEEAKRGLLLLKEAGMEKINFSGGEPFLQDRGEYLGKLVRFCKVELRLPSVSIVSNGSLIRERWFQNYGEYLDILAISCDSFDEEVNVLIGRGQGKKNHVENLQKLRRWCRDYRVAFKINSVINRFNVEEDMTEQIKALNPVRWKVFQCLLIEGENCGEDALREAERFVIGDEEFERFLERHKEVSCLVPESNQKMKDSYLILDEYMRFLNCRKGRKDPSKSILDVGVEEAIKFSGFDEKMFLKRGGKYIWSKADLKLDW


Experiments:
[1] = target: T1, viperin (virus inhibitory protein, endoplasmic reticulum-associated, interferon-inducible) with N-terminal 3x-FLAG tag (human); test: affinity purification with mass spectrometry
[2] = target: T2, viperin (virus inhibitory protein, …); test: affinity purification with mass spectrometry; details: remark: other sources report otherwise

Molecule	binding [1]	binding [2]
squalene monooxygenase (endogenous) (from UniProt Q14534 1-574) (enzyme)	binds	–
HADHA (from UniProt P40939 37-763)	binds	–
lanosterol synthase (endogenous) (enzyme, UniProt P48449 1-732) MTEGTCLRRRGGPYKTEPATDLGRWRLNCERGRQTWTYLQDERAGREQTGLEAYALGLDTKNYFKDLPKAHTAFEGALNGMTFYVGLQAEDGHWTGDYGGPLFLLPGLLITCHVARIPLPAGYREEIVRYLRSVQLPDGGWGLHIEDKSTVFGTALNYVSLRILGVGPDDPDLVRARNILHKKGGAVAIPSWGKFWLAVLNVYSWEGLNTLFPEMWLFPDWAPAHPSTLWCHCRQVYLPMSYCYAVRLSAAEDPLVQSLRQELYVEDFASIDWLAQRNNVAPDELYTPHSWLLRVVYALLNLYEHHHSAHLRQRAVQKLYEHIVADDRFTKSISIGPISKTINMLVRWYVDGPASTAFQEHVSRIPDYLWMGLDGMKMQGTNGSQIWDTAFAIQALLEAGGHHRPEFSSCLQKAHEFLRLSQVPDNPPDYQKYYRQMRKGGFSFSTLDCGWIVSDCTAEALKAVLLLQEKCPHVTEHIPRERLCDAVAVLLNMRNPDGGFATYETKRGGHLLELLNPSEVFGDIMIDYTYVECTSAVMQALKYFHKRFPEHRAAEIRETLTQGLEFCRRQQRADGSWEGSWGVCFTYGTWFGLEAFACMGQTYRDGTACAEVSRACDFLLSRQMADGGWGEDFESCEERRYLQSAQSQIHNTCWAMMGLMAVRHPDIEAQERGVRCLLEKQLPNGDWPQENIAGVFNKSCAISYTSYRNIFPIWALGRFSQLYPERALAGHP	binds	–
HADHB (mitochondrial trifunctional protein β-subunit), P55084 34-474 (protein) AAPAVQTKTKKTLAKPNIRNVVVVDGVRTPFLLSGTSYKDLMPHDLARAALTGLLHRTSVPKEVVDYIIFGTVIQEVKTSNVAREAALGAGFSDKTPAHTVTMACISANQAMTTGVGLIASGQCDVIVAGGVELMSDVPIRHSRKMRKLMLDLNKAKSMGQRLSLISKFRFNFLAPELPAVSEFSTSETMGHSADRLAAAFAVSRLEQDEYALRSHSLAKKAQDEGLLSDVVPFKVPGKDTVTKDNGIRPSSLEQMAKLKPAFIKPYGTVTAANSSFLTDGASAMLIMAEEKALAMGYKPKAYLRDFMYVSQDPKDQLLLGPTYATPKVLEKAGLTMNDIDAFEFHEAFSGQILANFKAMDSDWFAENYMGRKTKVGLPPLEKFNNWGGSLSLGHPFGATGCRLVMAAANRLRKEGGQYGLVAACAAGGQGHAMIVEAYPK	–	binds
farnesyl pyrophosphate synthase (enzyme, UniProt P14324 1-419) MPLSRWLRSVGVFLLPAPYWAPRERWLGSLRRPSLVHGYPVLAWHSARCWCQAWTEEPRALCSSLRMNGDQNSDVYAQEKQDFVQHFSQIVRVLTEDEMGHPEIGDAIARLKEVLEYNAIGGKYNRGLTVVVAFRELVEPRKQDADSLQRAWTVGWCVELLQAFFLVADDIMDSSLTRRGQICWYQKPGVGLDAINDANLLEACIYRLLKLYCREQPYYLNLIELFLQSSYQTEIGQTLDLLTAPQGNVDLVRFTEKRYKSIVKYKTAFYSFYLPIAAAMYMAGIDGEKEHANAKKILLEMGEFFQIQDDYLDLFGDPSVTGKIGTDIQDNKCSWLVVQCLQRATPEQYQILKENYGQKEAEKVARVKALYEELDLPAVFLQYEEDSYSHIMALIEQYAAPLPPAVFLGLARKIYKRRK	no binding	–
